Data from PubChem BioAssay AID1487 (National Center for Advancing Translational Sciences (NCATS), 2009).
The other results are listed elsewhere or left out. These are further read-outs of the screen, such as a control signal, another cell line or another target. No call is given for them. Compounds called inactive in the main read-out are mostly missing here. Potencies come from curve fits of mixed quality, noted in brackets.

Experiment: qHTS Assay for Modulators of Lamin A Splicing
Conditions: HeLa LMNA splicing GFP/RFP minigene ratio, 48 h
Procedure, shortened: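 S3 HeLa stable clones carrying a lamin A-EGFP splicing minigene plus DsRed2 were seeded at 600 cells/well in Opti-MEM with 2% FBS, pin-dosed and incubated 48 h at 37°C. Acumen cytometry (488 nm) gave the GFP/RFP total-intensity ratio.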

[1] = measured here: GFP splicing reporter channel
[2] = measured here: RFP viability control channel

Row | SMILES | AC50 [1] | AC50 [2]
1 | OCCCNc1nc(-c2ccc(Cl)cc2)nnc1-c1ccc(Br)cc1 | 17.8 µM [rising, single point] | 14.1 µM [rising, single point]
2 | Cc1ccc(C)c(C(C)NC(=O)c2ccccc2Br)c1 (configuration not stated) | 11.2 µM [rising, single point] | 12.6 µM [rising, single point]
3 | CCCC(=O)Nc1ccc(OC[C@@H](O)CNC(C)C)c(C(C)=O)c1 | 8.91 µM [falling, single point] | 0.562 µM [falling, single point]
4 | Cc1cc(C(C)(C)C)oc1C(=O)N(CC(=O)NC1CCCC1)c1c(C)cccc1C | – | 25.1 µM [rising, single point]
5 | Cn1c(=O)c(C(=O)Nc2ccccn2)c(O)c2ccccc21 | – | 0.891 µM [rising, partial curve, poor fit]
6 | CCCCn1cc(S(=O)(=O)c2cc(C)ccc2C)c(=O)c2cc(F)c(N3CCC(C)CC3)cc21 | – | 3.55 µM [rising, single point]
7 | CCn1c(CCn2c3ccccc3c3ccccc32)n[nH]c1=S | 14.1 µM [rising, single point] | 20 µM [rising, single point]
8 | N#CCCN1CCN(Cc2cc(-c3ccccc3)ccc2O)CC1 | 35.5 µM [rising, single point] | 31.6 µM [rising, single point]
9 | COc1ccccc1NC(=O)COc1ccc(Br)cc1CNCCCN1CCOCC1 | – | 2 µM [rising, full curve, poor fit]
10 | CSc1ncc(C(=O)Nc2ccccc2C(F)(F)F)c(-c2ccccc2)n1 | 0.0224 µM [rising, full curve, poor fit] | –
11 | Cc1ccc(Nc2ncnc3c2cnn3-c2ccc(C)cc2)cc1 | 1.26 µM [falling, full curve] | 1.41 µM [falling, full curve]
12 | CC(C)Cc1csc(NC(=O)c2ccccc2Cl)c1C(=O)O | 35.5 µM [rising, single point] | 35.5 µM [rising, single point]
13 | CC(=O)c1cccc2c(O)c(C3=Nc4ccccc4C3=O)[nH]c12 | – | 10 µM [falling, partial curve]
14 | CC(=O)c1cccc(S(=O)(=O)N(C)C2CCN(C)CC2)c1 | – | 0.141 µM [rising, full curve, poor fit]
15 | Cc1ccc(NC2=C(NC(=O)c3ccccc3)C(=O)c3ccccc3C2=O)cc1Cl | – | 35.5 µM [rising, single point]
16 | Cc1ccc(S(=O)(=O)N(C)CC(=O)Nc2ccncc2)cc1 | – | 14.1 µM [rising, single point]
17 | NS(=O)(=O)c1cccc(NC(=O)CN2CCc3ccccc32)c1 | 3.55 µM [falling, full curve] | –
18 | CCCCn1c(SCc2c(C)noc2C)nc2cc(S(N)(=O)=O)ccc21 | 6.31 µM [falling, full curve, poor fit] | 14.1 µM [rising, single point]
19 | c1ccc2c(c1)[nH]c1nc3nncn3nc12 | – | 2.51 µM [rising, single point]
20 | COc1ccc(-n2cc(C(=O)N(C)c3cc(C)ccc3OC)c3ccccc3c2=O)cc1 | – | 11.2 µM [rising, partial curve]
21 | Cc1ccc(/C=N/Nc2nc(C(C)(C)C)cs2)o1 | 0.891 µM [falling, full curve, poor fit] | 0.708 µM [falling, full curve, poor fit]
22 | Cc1cccc(NC(=O)C2CCN(S(=O)(=O)c3cccs3)CC2)n1 | – | 11.2 µM [rising, partial curve]
23 | O=C(CCc1ccccc1)NC(=S)Nc1ccc(S(=O)(=O)N2CCOCC2)cc1 | 35.5 µM [rising, single point] | 35.5 µM [rising, single point]
24 | CCOC(=O)N1CCN(S(=O)(=O)c2ccc(C(=O)Nc3ccc(F)cc3F)cc2)CC1 | – | 3.98 µM [falling, partial curve]
25 | CCOC(=O)C1C(=O)NC(SCC(N)=O)=C(C#N)C1c1ccccc1OCC (configuration not stated) | – | 0.891 µM [falling, full curve, poor fit]
26 | COc1ccc(CCn2c(=O)[nH]c3cc(C(=O)N4CCN(c5ccccc5)CC4)ccc3c2=O)cc1OC | 0.316 µM [falling, full curve, poor fit] | 8.91 µM [falling, partial curve, poor fit]
27 | CCOC(=O)N1CCN(C(=O)C2CCN(S(=O)(=O)c3ccc(OC)cc3)CC2)CC1 | 0.00447 µM [falling, full curve, poor fit] | 0.00501 µM [falling, full curve, poor fit]
28 | Cc1ccc(-n2c(C)nn(Cc3ccc([N+](=O)[O-])cc3)c2=O)cc1 | – | 1.12 µM [falling, partial curve, poor fit]

Row | SMILES | AC50 [1] | AC50 [2]
29 | CCC(C)(C)n1nnnc1C(c1cc2ccc(C)cc2[nH]c1=O)N(Cc1cccnc1)Cc1ccco1 (configuration not stated) | – | 35.5 µM [falling, single point]
30 | Cc1cccc(CNc2nc(-c3c(C)noc3C)nc3ccccc23)c1 | 35.5 µM [falling, single point] | 35.5 µM [falling, single point]
31 | CC1=C(c2ccc(C)cc2)S(=O)(=O)N(Cc2ccc(C(=O)Nc3ccccc3C)cc2)C1=O | – | 10 µM [rising, partial curve, poor fit]
32 | COc1ccc(-c2csc(N3CCC(C(N)=O)(N4CCCCC4)CC3)n2)cc1 | – | 35.5 µM [rising, single point]
33 | O=c1[nH]c2ccccc2c(O)c1SCCO | 5.62 µM [rising, single point] | –
34 | Cc1nc2ccccc2cc1OCc1ccc(F)cc1 | 10 µM [rising, partial curve, poor fit] | 7.94 µM [rising, partial curve]
35 | C/C=C/c1ccc(OCCCCNCc2ccco2)c(OC)c1 | 2.51 µM [falling, partial curve] | –
36 | Cc1ccc(S(=O)(=O)c2cc3ccccc3oc2=Nc2ccc3c(c2)OCCO3)cc1 | 11.2 µM [rising, single point] | –
37 | Cc1ccc(Nc2nnc(C3C(=O)N(C)C4(C)CC3c3cc(Br)ccc3O4)s2)cc1 (configuration not stated) | – | 6.31 µM [rising, full curve, poor fit]
38 | COc1ccc(/C=C/C(=O)c2cc(F)ccc2OC(=O)c2ccccc2C)cc1OC | 2.24 µM [rising, full curve] | 2.51 µM [rising, partial curve]
39 | COc1ccc(NC(=O)c2c(-c3ccccc3Cl)noc2C)c(OC)c1 | – | 10 µM [rising, partial curve, poor fit]
40 | O=C(/C=C\C=C/c1ccc2c(c1)OCO2)N1CCCCC1 | 0.282 µM [falling, full curve] | 0.631 µM [falling, full curve, poor fit]
41 | CCOC(=O)CN1C(=O)Nc2ccc(Br)cc2C1c1ccccc1 (configuration not stated) | 0.0158 µM [rising, full curve, poor fit] | –
42 | CC(C)CCNC(=O)c1ccc(OC2CCN(S(=O)(=O)N(C)C)CC2)cc1 | 12.6 µM [falling, partial curve] | 20 µM [falling, partial curve, poor fit]
43 | O=C(OCn1ncc(Cl)c(Cl)c1=O)c1ccc(F)cc1 | 6.31 µM [falling, full curve] | 3.98 µM [falling, full curve]
44 | COc1ccccc1N1CCN(C(=O)CCc2c[nH]c3ccccc23)CC1 | 0.00316 µM [falling, full curve, poor fit] | 0.00708 µM [falling, full curve]
45 | CC(O)CNCCCCOc1ccc(OCc2ccccc2)cc1 (configuration not stated) | 12.6 µM [falling, partial curve, poor fit] | –
46 | O=C(Nc1ccc(Cl)cc1)c1cc(S(=O)(=O)N2CCOCC2)cs1 | – | 12.6 µM [rising, partial curve]
47 | COC(=O)c1ccccc1NC(=O)CSc1nnnn1-c1ccc(C)cc1C | – | 12.6 µM [rising, single point]
48 | Cc1ccc(Nc2cc(C)nc(N3CCOCC3)n2)cc1 | 0.794 µM [falling, full curve] | 0.794 µM [falling, full curve]
49 | O=C(C1CCCN(S(=O)(=O)c2cccc3nonc23)C1)N1CCN(c2ccccc2Cl)CC1 (configuration not stated) | 11.2 µM [rising, partial curve] | 22.4 µM [rising, single point]
50 | O=C(c1nc2ccccn2c1CN1CCN(c2ccccc2O)CC1)N1CCCC1 | – | 7.08 µM [falling, full curve, poor fit]
51 | CCOC(=O)C1(Cc2ccccc2C)CCCN(C(=O)CCc2cccnc2)C1 (configuration not stated) | 0.00447 µM [rising, full curve, poor fit] | –
52 | CCn1c(CNc2ccc(F)cc2)nnc1SCC(=O)N1CCCc2ccccc21 | – | 12.6 µM [rising, single point]
53 | CCN(CC)C(=S)SCC(=O)c1ccc(Br)cc1 | – | 35.5 µM [rising, single point]
54 | O=c1nc(-c2ccccc2)n(-c2ccccc2)[nH]1 | – | 35.5 µM [rising, single point]
55 | Cc1ccc(S(=O)(=O)N(CC(=O)N=Nc2c(O)[nH]c3ccccc23)c2cccc(C)c2)cc1 | 11.2 µM [falling, partial curve] | 15.8 µM [falling, single point]

Structural class: the compounds so far with a tert-butyl group
Row | SMILES | AC50 [1] | AC50 [2]
4 | Cc1cc(C(C)(C)C)oc1C(=O)N(CC(=O)NC1CCCC1)c1c(C)cccc1C | – | 25.1 µM [rising, single point]
21 | Cc1ccc(/C=N/Nc2nc(C(C)(C)C)cs2)o1 | 0.891 µM [falling, full curve, poor fit] | 0.708 µM [falling, full curve, poor fit]
